# In the supplement of paper PMC8728848:
# Some of the results follow.
# Assays:
# Test in all cases: glycan array binding signal (z-score within array); higher = stronger binding
# Conditions in all cases: glycan notation: IUPAC condensed, linker removed
# [1] = target: Fuc(a1-2)[Gal(a1-3)]Gal(b1-4)GlcNAc(b1-2)Man(a1-3)[Fuc(a1-2)[Gal(a1-3)]Gal(b1-4)GlcNAc(b1-2)Man(a1-6)]Man(b1-4)GlcNAc(b1-4)[Fuc(a1-6)]GlcNAc
# Procedure, shortened: (§1)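 Arrays were curated from the Consortium for Functional Glycomics database, 3228 in total, and kept only where the protein sequence was available. Binding is expressed as a within-array Z-score. This score was averaged across arrays of the same protein sequence at different concentrations or buffers and across linkers, and negative values can be read as non-binding.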
# [2] = target: Fuc(a1-2)[Gal(a1-3)]Gal(b1-4)GlcNAc(b1-3)GalNAc
# Procedure, shortened: as §1
# [3] = target: Fuc(a1-2)[Gal(a1-3)]Gal(b1-4)GlcNAc(b1-6)GalNAc
# Procedure, shortened: as §1
# [4] = target: Fuc(a1-2)[Gal(a1-3)]Gal(b1-4)[Fuc(a1-3)]Glc
# Procedure, shortened: as §1
# [5] = target: Fuc(a1-2)[Gal(a1-3)]Gal(b1-4)[Fuc(a1-3)]GlcNAc
# Procedure, shortened: as §1
# [6] = target: Fuc(a1-2)[Gal(a1-3)]Gal(b1-4)[Fuc(a1-3)]GlcNAc(b1-3)GalNAc
# Procedure, shortened: as §1
# [7] = target: Fuc(a1-2)[Gal(a1-4)]Gal(b1-4)GlcNAc
# Procedure, shortened: as §1
# [8] = target: Fuc(a1-2)[GalNAc(a1-3)]Gal
# Procedure, shortened: as §1
# [9] = target: Fuc(a1-2)[GalNAc(a1-3)]Gal(b1-3)GalNAc(a1-3)[Fuc(a1-2)]Gal(b1-4)GlcNAc
# Procedure, shortened: as §1
# [10] = target: Fuc(a1-2)[GalNAc(a1-3)]Gal(b1-3)GalNAc(b1-3)Gal(a1-4)Gal(b1-4)Glc
# Procedure, shortened: as §1
# [11] = target: Fuc(a1-2)[GalNAc(a1-3)]Gal(b1-3)GlcNAc
# Procedure, shortened: as §1
# [12] = target: Fuc(a1-2)[GalNAc(a1-3)]Gal(b1-3)GlcNAc(b1-2)Man(a1-3)[Fuc(a1-2)[GalNAc(a1-3)]Gal(b1-3)GlcNAc(b1-2)Man(a1-6)]Man(b1-4)GlcNAc(b1-4)GlcNAc
# Procedure, shortened: as §1
# [13] = target: Fuc(a1-2)[GalNAc(a1-3)]Gal(b1-3)GlcNAc(b1-2)Man(a1-3)[Fuc(a1-2)[GalNAc(a1-3)]Gal(b1-3)GlcNAc(b1-2)Man(a1-6)]Man(b1-4)GlcNAc(b1-4)[Fuc(a1-6)]GlcNAc
# Procedure, shortened: as §1
# [14] = target: Fuc(a1-2)[GalNAc(a1-3)]Gal(b1-3)GlcNAc(b1-3)GalNAc
# Procedure, shortened: as §1
# [15] = target: Fuc(a1-2)[GalNAc(a1-3)]Gal(b1-3)GlcNAc(b1-6)GalNAc
# Procedure, shortened: as §1
# [16] = target: Fuc(a1-2)[GalNAc(a1-3)]Gal(b1-4)Glc
# Procedure, shortened: as §1
# [17] = target: Fuc(a1-2)[GalNAc(a1-3)]Gal(b1-4)GlcNAc
# Procedure, shortened: as §1
# [18] = target: Fuc(a1-2)[GalNAc(a1-3)]Gal(b1-4)GlcNAc(b1-2)Man
# Procedure, shortened: as §1
# [19] = target: Fuc(a1-2)[GalNAc(a1-3)]Gal(b1-4)GlcNAc(b1-2)Man(a1-3)[Fuc(a1-2)[GalNAc(a1-3)]Gal(b1-4)GlcNAc(b1-2)Man(a1-6)]Man(b1-4)GlcNAc(b1-4)GlcNAc
# Procedure, shortened: as §1
# [20] = target: Fuc(a1-2)[GalNAc(a1-3)]Gal(b1-4)GlcNAc(b1-2)Man(a1-3)[Fuc(a1-2)[GalNAc(a1-3)]Gal(b1-4)GlcNAc(b1-2)Man(a1-6)]Man(b1-4)GlcNAc(b1-4)[Fuc(a1-6)]GlcNAc
# Procedure, shortened: as §1
# [21] = target: Fuc(a1-2)[GalNAc(a1-3)]Gal(b1-4)GlcNAc(b1-3)Gal(b1-4)GlcNAc
# Procedure, shortened: as §1
# [22] = target: Fuc(a1-2)[GalNAc(a1-3)]Gal(b1-4)GlcNAc(b1-3)Gal(b1-4)GlcNAc(b1-3)Gal(b1-4)GlcNAc
# Procedure, shortened: as §1
# [23] = target: Fuc(a1-2)[GalNAc(a1-3)]Gal(b1-4)GlcNAc(b1-3)GalNAc
# Procedure, shortened: as §1
# [24] = target: Fuc(a1-2)[GalNAc(a1-3)]Gal(b1-4)GlcNAc(b1-3)[Fuc(a1-2)[GalNAc(a1-3)]Gal(b1-4)GlcNAc(b1-6)]GalNAc
# Procedure, shortened: as §1
# [25] = target: Fuc(a1-2)[GalNAc(a1-3)]Gal(b1-4)GlcNAc(b1-6)GalNAc
# Procedure, shortened: as §1
# [26] = target: Fuc(a1-2)[GalNAc(a1-3)]Gal(b1-4)[Fuc(a1-3)]GlcNAc
# Procedure, shortened: as §1
# [27] = target: Fuc(a1-2)[GalNAc(a1-3)]Gal(b1-4)[Fuc(a1-3)]GlcNAc(b1-3)GalNAc
# Procedure, shortened: as §1
# [28] = target: Fuc(a1-2)[GalNAc(a1-4)]Gal(b1-4)GlcNAc
# Procedure, shortened: as §1
# [29] = target: Fuc(a1-2)[GalNAc(b1-3)]Gal
# Procedure, shortened: as §1
# [30] = target: Fuc(a1-3)GlcNAc
# Procedure, shortened: as §1
# [31] = target: Fuc(a1-3)[Gal(b1-4)]Glc6S
# Procedure, shortened: as §1
# [32] = target: Fuc(a1-3)[Gal(b1-4)]GlcNAc
# Procedure, shortened: as §1
# [33] = target: Fuc(a1-3)[Gal(b1-4)]GlcNAc(b1-2)Man
# Procedure, shortened: as §1
# [34] = target: Fuc(a1-3)[Gal(b1-4)]GlcNAc(b1-2)Man(a1-3)[Fuc(a1-3)[Gal(b1-4)]GlcNAc(b1-2)Man(a1-6)]Man(b1-4)GlcNAc(b1-4)GlcNAc
# Procedure, shortened: as §1
# [35] = target: Fuc(a1-3)[Gal(b1-4)]GlcNAc(b1-2)Man(a1-3)[Fuc(a1-3)[Gal(b1-4)]GlcNAc(b1-2)Man(a1-6)]Man(b1-4)GlcNAc(b1-4)[Fuc(a1-6)]GlcNAc
# Procedure, shortened: as §1
# [36] = target: Fuc(a1-3)[Gal(b1-4)]GlcNAc(b1-3)Gal(b1-3)[Fuc(a1-4)]GlcNAc
# Procedure, shortened: as §1
# [37] = target: Fuc(a1-3)[Gal(b1-4)]GlcNAc(b1-3)Gal(b1-4)[Fuc(a1-3)]GlcNAc
# Procedure, shortened: as §1
# [38] = target: Fuc(a1-3)[Gal(b1-4)]GlcNAc(b1-3)Gal(b1-4)[Fuc(a1-3)]GlcNAc(b1-3)Gal(b1-4)[Fuc(a1-3)]GlcNAc
# Procedure, shortened: as §1
# [39] = target: Fuc(a1-3)[Gal(b1-4)]GlcNAc(b1-3)GalNAc
# Procedure, shortened: as §1
# [40] = target: Fuc(a1-3)[Gal(b1-4)]GlcNAc(b1-6)GalNAc
# Procedure, shortened: as §1
# [41] = target: Fuc(a1-3)[Gal(b1-4)]GlcNAc(b1-6)[Gal(b1-3)GlcNAc(b1-3)]Gal(b1-4)Glc
# Procedure, shortened: as §1
# [42] = target: Fuc(a1-3)[Gal(b1-4)]GlcNAc6S
# Procedure, shortened: as §1
# [43] = target: Fuc(a1-3)[Gal3S(b1-4)]Glc
# Procedure, shortened: as §1
# [44] = target: Fuc(a1-3)[Gal3S(b1-4)]GlcNAc
# Procedure, shortened: as §1
# [45] = target: Fuc(a1-3)[Gal3S(b1-4)]GlcNAc6S
# Procedure, shortened: as §1
binder,measurement,setting,value
HFR-3 (Triticum aestivum) (protein) MKGLLLCALALAFAAVTTHAQLQSCPTRCGKQADGMECPNNLCCSKDGYCGLGVDYCSAGAGCQSGACYDNKICGAQANGTLCRNNHCCSSGGRCGYGREYCSNGCQGGPCWADLKCGHLDNGKLCPNNLCCSQYGYCGLGPEFCGTGCQNGACSTDKPCGNKANGAPCTNNYCCSQYGSCGLGKDYCGTGCQNGACN,glycan array binding signal (z-score),[1],0.362
same,glycan array binding signal (z-score),[2],-0.757
same,glycan array binding signal (z-score),[3],-1.13
same,glycan array binding signal (z-score),[4],-0.547
same,glycan array binding signal (z-score),[5],-0.831
same,glycan array binding signal (z-score),[6],0.903
same,glycan array binding signal (z-score),[7],-1.66
same,glycan array binding signal (z-score),[8],-0.243
same,glycan array binding signal (z-score),[9],-0.516
same,glycan array binding signal (z-score),[10],-1.32
same,glycan array binding signal (z-score),[11],-0.435
same,glycan array binding signal (z-score),[12],-0.138
same,glycan array binding signal (z-score),[13],-1.12
same,glycan array binding signal (z-score),[14],-0.043
same,glycan array binding signal (z-score),[15],0.01
same,glycan array binding signal (z-score),[16],-0.076
same,glycan array binding signal (z-score),[17],0.093
same,glycan array binding signal (z-score),[18],-0.95
same,glycan array binding signal (z-score),[19],-0.537
same,glycan array binding signal (z-score),[20],-0.517
same,glycan array binding signal (z-score),[21],-0.377
same,glycan array binding signal (z-score),[22],-0.16
same,glycan array binding signal (z-score),[23],-1.3
same,glycan array binding signal (z-score),[24],-0.196
same,glycan array binding signal (z-score),[25],-0.396
same,glycan array binding signal (z-score),[26],-0.585
same,glycan array binding signal (z-score),[27],-0.102
same,glycan array binding signal (z-score),[28],-0.421
same,glycan array binding signal (z-score),[29],0.855
same,glycan array binding signal (z-score),[30],-0.336
same,glycan array binding signal (z-score),[31],-1.23
same,glycan array binding signal (z-score),[32],0.146
same,glycan array binding signal (z-score),[33],-0.502
same,glycan array binding signal (z-score),[34],-0.674
same,glycan array binding signal (z-score),[35],-0.211
same,glycan array binding signal (z-score),[36],-0.167
same,glycan array binding signal (z-score),[37],0.97
same,glycan array binding signal (z-score),[38],1.26
same,glycan array binding signal (z-score),[39],-1.2
same,glycan array binding signal (z-score),[40],-1.31
same,glycan array binding signal (z-score),[41],0.487
same,glycan array binding signal (z-score),[42],-1.19
same,glycan array binding signal (z-score),[43],2.04
same,glycan array binding signal (z-score),[44],0.782
same,glycan array binding signal (z-score),[45],1.13

# A different layout for some results above:
binder	measurement	setting	value
HFR-3 (Triticum aestivum) (protein) MKGLLLCALALAFAAVTTHAQLQSCPTRCGKQADGMECPNNLCCSKDGYCGLGVDYCSAGAGCQSGACYDNKICGAQANGTLCRNNHCCSSGGRCGYGREYCSNGCQGGPCWADLKCGHLDNGKLCPNNLCCSQYGYCGLGPEFCGTGCQNGACSTDKPCGNKANGAPCTNNYCCSQYGSCGLGKDYCGTGCQNGACN	glycan array binding signal (z-score)	[27]	-0.102
same	glycan array binding signal (z-score)	[28]	-0.421
